This note sets out measurements from publication PMC5427286.

By UniProt entry, the sequences of proteins in these tests, tags left out. Where a name states a change or a piece, a line headed by the entry shows the natural chain unless it says otherwise. Residues count along the entry.
UniProt P31170, residues 44-227: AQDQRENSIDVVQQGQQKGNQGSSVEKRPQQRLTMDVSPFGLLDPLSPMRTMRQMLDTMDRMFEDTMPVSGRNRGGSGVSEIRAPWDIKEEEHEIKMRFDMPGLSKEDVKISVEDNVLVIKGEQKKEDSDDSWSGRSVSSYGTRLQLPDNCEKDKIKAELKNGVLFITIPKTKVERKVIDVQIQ

This assay addresses Hsp21, the 21-kDa chloroplast-localized small heat-shock protein of Arabidopsis thaliana (A. thaliana) (UniProt P31170). The assay can be described thus: cross-linking; BS3 (lysine-specific), 50 uM protein, 10- or 60-fold excess of cross-linker, room temperature, 20 min; in-gel or in-solution trypsin digestion and LC-MS/MS; mixed isotope labeling: unlabeled and 15N-labeled protein incubated at 37 C for 1 h before cross-linking, hybrid 14N-15N cross-links taken as intersubunit; both purified.

No constants are given. Whether binding was seen depends on the method and setting. A result given as binding can be weak or reduced; the word gives no strength.

As to “Hsp21^V181A, non-dodecameric mutational variant of Hsp21 (from UniProt P31170)”, the binding result is on record as “binds”.
